Values of other authors as cited in patent publication US8883849B2, “Treatment of sleep disturbances” (Wyeth LLC, priority 2001, dated 2014).

Conditions: cited from earlier work

SMILES: CN(C)CCOC(c1ccccc1)c1ccccc1 [DPH, 2-(diphenylmethoxy)-N,N-dimethylethylamine]
- time to reach effective concentrations in the plasma (on average, after treatment): ≥ 2 h
- time until the drug appears in plasma (oral administration of a single dose): ≤ 15 min
